Data: PubChem BioAssay AID504467 (National Center for Advancing Translational Sciences (NCATS), 2011)
Among all 330,000 compounds or so, about 7,700 (2.3%) were called active. The shares of active, inactive and inconclusive entries below differ from those in the screen. Calls come from the whole dose curve; as a rule, active = well fitted inhibition curve with a large enough effect; inconclusive = small, poorly fitted or top-dose-only effect, or effect the other way; inactive = flat fitted curve, though single readings scatter. Potencies of inconclusive entries are doubtful fits and often do not repeat.

Test: qHTS screen for small molecules that inhibit ELG1-dependent DNA repair in human embryonic kidney (HEK293T) cells expressing luciferase-tagged ELG1; note: nearly all actives have a fitted effect of over 55% in size
Details: HEK293T ELG1-luciferase reporter, luminescence, 16 h, DNA damage induced by 5-fluorouridine; activity change, negative = inhibition: at 46.1 µM (top of the series)
How it was run: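 Cells (2,000 per well) received 5-fluorouridine plus test compound or DMSO and were incubated 16 hr at 37 °C, 5% CO2. Luciferase activity was read by luminescence 30 min after ONE-Glo addition; signal suppression marked inhibition of damage-induced ELG1 function.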
% is set by controls: 0 for no effect and ±100 for the full control effect; potency is the fitted concentration of half-maximal effect.

Row | SMILES | activity change, negative = inhibition | Potency
1 | Cc1c(Cl)cccc1NC(=S)NCCN1CCOCC1 | inactive: 12.8% | 
2 | COC(=O)C1CC23C=CCN4CCC5(c6ccccc6NC15C2C)C43 (centres undefined) |  | inconclusive: 0.82 µM [inhibitor, single point]
3 | O=C(COc1ccc(Cl)cc1)Nc1ccccc1CO |  | inconclusive: 18.4 µM [activator, partial curve]
4 | C=CC[C@H](CC(=O)NCCO)C(=O)N[C@@H](C)COC(=O)[C@@H](CC=C)CC(=O)OC(C)(C)C |  | inconclusive: 18.3 µM [activator, partial curve, poor fit]
5 | COc1cc(C2c3c(-c4ccccc4O)n[nH]c3C(=O)N2Cc2ccco2)cc(OC)c1OC (centres undefined) | inactive: 1.6% | 
6 | CN(c1ccccc1)S(=O)(=O)c1nnc(NC(=O)c2ccco2)s1 | inactive: 1.21% | 
7 | Clc1ccccc1CSc1nnc(-c2cccnc2)n1Cc1ccco1 |  | inconclusive: 5.17 µM [inhibitor, partial curve, poor fit]
8 | COc1cccc(-c2nnc(SCC(=O)OC(C)C)n2Cc2ccco2)c1 | inactive: -1.24% | 
9 | O=[N+]([O-])c1cccc(/C=N/Nc2nccnc2Cl)c1 |  | inconclusive: 18.4 µM [activator, partial curve]
10 | CC(C)(C)C(=O)CSc1nc2ncc(Br)cc2[nH]1 | inactive: 15.9% | 
11 | O=S(=O)(c1ccc(NC(=S)NN=C(Cc2ccccc2)Cc2ccccc2)cc1)N1CCOCC1 |  | inconclusive: 25.9 µM [inhibitor, partial curve, poor fit]
12 | O=C(NCC1CCCO1)C1CC(c2ccccc2Cl)=NO1 (centres undefined) |  | inconclusive: 29.1 µM [activator, single point]
13 | O=C(NCC(c1cccnc1)N1CCN(c2ccccc2F)CC1)OCc1ccccc1 (centres undefined) |  | active: 23.1 µM
14 | Cc1ccc(-c2nc(CSCC(=O)N3CCN(C(=O)c4ccco4)CC3)c(C)o2)cc1 |  | inconclusive: 20.6 µM [inhibitor, single point]
15 | Cc1ccc(OCC(=O)Nc2cccc(O)c2)cc1C |  | inconclusive: 3.26 µM [activator, full curve]
16 | CC1CCC(NC(=O)CCNS(=O)(=O)c2ccccc2)CC1 (centres undefined) |  | inconclusive: 29.1 µM [activator, partial curve, poor fit]
17 | CCn1c(=O)c2c(nc3n2CCCN3CCc2ccccc2)n(C)c1=O |  | inconclusive: 23.1 µM [inhibitor, partial curve, poor fit]
18 | CCN(CC)S(=O)(=O)c1ccc(C(=O)NCc2ccc3c(c2)cc(C)n3C)cc1 |  | inconclusive: 29.1 µM [inhibitor, single point]
19 | c1ccc2[nH]c(SCc3cn4cccnc4n3)nc2c1 |  | inconclusive: 20.6 µM [activator, partial curve]
20 | Oc1ccccc1/C=N/NC(=S)NC1CC2C=CC1C2 (centres undefined) |  | inconclusive: 23.1 µM [activator, partial curve]
21 | CCc1nc2oc3ccccc3c(=O)c2c(=O)n1-c1ccc(C)cc1 |  | inconclusive: 9.2 µM [activator, partial curve]
22 | Cc1ccc(NC(=O)c2cc(-c3cccs3)nc3ccccc23)nc1 |  | inconclusive: 29.1 µM [inhibitor, single point]
23 | COc1ccc(NC(=O)C2CCCN(S(=O)(=O)c3cccs3)C2)cc1OC (centres undefined) |  | inconclusive: 29.1 µM [inhibitor, single point]

Row | SMILES | activity change, negative = inhibition | Potency
24 | N#Cc1cccc(C#N)c1Oc1ccc(N)cc1 | inactive: 9.24% | 
25 | NS(=O)(=O)c1ccc(CNC(=S)Nc2ccc(F)c(Cl)c2)cc1 |  | inconclusive: 29.1 µM [inhibitor, single point]
26 | COc1cc(OC)cc(C(=O)N2CCN(C(=O)c3ccc(-c4ccccc4)cc3)CC2)c1 | inactive: 9.2% | 
27 | CC(=O)c1ccc(NC(=O)Nc2cccnc2)cc1 |  | inconclusive: 18.3 µM [activator, partial curve]
28 | COc1cc2c(cc1OC)CN(C(=O)c1oc3ccccc3c1C)CC2 |  | inconclusive: 18.3 µM [inhibitor, single point]
29 | CCc1ccc(/C=C/c2c([N+](=O)[O-])c(=O)n(C)c(=O)n2C)cc1 |  | inconclusive: 18.3 µM [inhibitor, single point]
30 | COc1ccc(OC)c(NC(=O)c2nc(S(=O)(=O)Cc3ccccc3)ncc2Cl)c1 |  | inconclusive: 23.1 µM [inhibitor, single point]
31 | CN(CC(=O)Nc1ccccc1C(F)(F)F)C(=O)c1cccc(-n2cccc2)c1 | inactive: 10.3% | 
32 | O=C(CSc1n[nH]c(-c2cccs2)n1)NCCc1ccccc1 | inactive: 13.4% | 
33 | O=C(c1ccc2[nH]ccc2c1)N1CCCC(Nc2ccccc2)C1 (centres undefined) |  | inconclusive: 6.51 µM [activator, partial curve, poor fit]
34 | CCCCCC1=C(C(=O)OC)C(C(=O)OCC)N(S(=O)(=O)C(F)(F)F)c2ccccc21 (centres undefined) |  | inconclusive: 29.1 µM [inhibitor, single point]
35 | CCOc1ccc(C)cc1S(=O)(=O)n1cnc2ccccc21 |  | inconclusive: 0.146 µM [inhibitor, full curve, poor fit]
36 | COc1ccc(-n2c(C)c(C)c3c(NCCO)ncnc32)cc1 |  | inconclusive: 18.3 µM [activator, partial curve]
37 | CC1=NN(c2ccc(C)c(C)c2)C(=O)/C1=C\C=C\c1ccc([N+](=O)[O-])o1 |  | inconclusive: 29.1 µM [inhibitor, single point]
38 | c1ccc2ncccc2c1 | inactive: 16.9% | 
39 | COc1ccc(C(=O)OCC(=O)Nc2cccc(C(C)=O)c2)cc1OC |  | inconclusive: 0.291 µM [inhibitor, full curve, poor fit]
40 | Cc1ccc(S(=O)(=O)N2CCN(C(C(=O)Nc3ccc(F)cc3)c3ccccc3)CC2)cc1 (centres undefined) | inactive: -16.5% | 
41 | COc1ccc(C(=O)NC2CCSC2=O)cc1 (centres undefined) |  | inconclusive: 18.4 µM [activator, partial curve, poor fit]
42 | CC(=O)c1cnc2c(-c3ccccc3)cnn2c1C |  | inconclusive: 20.6 µM [activator, partial curve]
43 | CN(C)c1nc(NCc2ccccc2)nc(N/N=C/c2ccccc2F)n1 |  | inconclusive: 25.9 µM [inhibitor, single point]
44 | CCOCCCNC1=C(Cl)C(=O)c2ccccc2C1=O | inactive: -24.3% | 
45 | COc1ccc(CCn2c(=S)[nH]c3cc(C(=O)NCc4ccco4)ccc3c2=O)cc1OC | inactive: -21.7% | 
46 | CCc1nc(SCC(=O)N2CCCc3ccccc32)c2oc3ccccc3c2n1 |  | inconclusive: 18.4 µM [inhibitor, single point]

Row | SMILES | activity change, negative = inhibition | Potency
47 | O=C(NCC(=O)N1CCCCC1)c1ccc(Cl)cc1Cl |  | inconclusive: 14.6 µM [activator, partial curve]
48 | CCCCc1cc(O)c(CCCC)c(O)c1 |  | inconclusive: 18.4 µM [activator, partial curve]
49 | CCCS(=O)(=O)c1nc(S(=O)(=O)c2ccc(C)cc2)c(N2CCC(O)CC2)s1 |  | inconclusive: 20.6 µM [activator, partial curve, poor fit]
50 | CCOC(=O)C(CCCCCOc1ccc([N+](=O)[O-])cc1)C(=O)OCC |  | inconclusive: 1.03 µM [inhibitor, full curve]
51 | CN(C)c1cccc(NC(=O)c2ccco2)c1 |  | inconclusive: 29.1 µM [activator, single point]
52 | O=C(Nc1ccccc1F)Nc1ccccc1F |  | inconclusive: 8.2 µM [activator, partial curve, poor fit]
53 | CCOC(=O)C1=C(COC(=O)c2cc(S(=O)(=O)N(C)C)ccc2C)NC(=O)NC1C (centres undefined) | inactive: -1.13% | 
54 | Cc1ccc(C(=O)c2nc3c(n2O)CCCC3)cc1 |  | inconclusive: 23.1 µM [activator, single point]
55 | O=C(Nc1ccc(F)cc1F)c1cc2ncc(CCCl)cn2n1 |  | inconclusive: 16.4 µM [activator, single point]
56 | COc1ccc(NS(=O)(=O)c2cc(N/C(=N\S(=O)(=O)c3ccccc3)c3ccc(F)cc3)ccc2Cl)cc1 |  | inconclusive: 29.1 µM [inhibitor, single point]
57 | COc1ccc2sc(NC(C)=O)nc2c1 |  | inconclusive: 9.2 µM [activator, partial curve]
58 | O=c1cc(N2CCc3ccccc32)[nH]c(=O)n1-c1ccc(Cl)cc1 | inactive: 9.46% | 
59 | O=[N+]([O-])c1ccc(COc2cccc3cccnc23)cc1 |  | inconclusive: 16.4 µM [activator, partial curve]
60 | Cc1cc(Cl)ccc1OCC(=O)Nc1nc(-c2cccnc2)cs1 | inactive: -3.12% | 
61 | CCc1nc(Nc2ccccc2OC)c2oc3ccccc3c2n1 | inactive: -25.9% | 
62 | O=C(Nc1ccc(Cl)c(Cl)c1)Nc1nnc(-c2ccncc2)s1 |  | inconclusive: 3.26 µM [inhibitor, full curve, poor fit]
63 | CCn1c(N2CCN(S(=O)(=O)c3ccccc3C(F)(F)F)CC2)nc2ccccc21 |  | inconclusive: 29.1 µM [inhibitor, single point]
64 | FC(F)(F)c1ccc(Cl)c(NC(=S)NC2CC2)c1 |  | inconclusive: 29.1 µM [activator, partial curve, poor fit]
65 | O=C(NC1CCCCCCC1)c1ccc(F)cc1 |  | inconclusive: 16.4 µM [activator, partial curve]
66 | Cc1cc(C=C2C(=O)c3ccccc3C2=O)c(C)n1C |  | inconclusive: 20.6 µM [activator, partial curve]
67 | S=C(NC1CCCCC1)N1CCc2ccccc2C1 |  | inconclusive: 20.6 µM [activator, single point]
68 | COc1ccc(CN2CCN(C(=O)c3ccc(CNS(=O)(=O)c4ccc(C)cc4)cc3)CC2)c(OC)c1OC |  | active: 9.2 µM
69 | COc1ccc(OC)c(/C=C2\SC(N3CCCC(C)C3)=NC2=O)c1 (centres undefined) |  | inconclusive: 14.6 µM [inhibitor, partial curve, poor fit]

Molecules shown so far that have a nitro group on carbon (5):
Row | SMILES | activity change, negative = inhibition | Potency
9 | O=[N+]([O-])c1cccc(/C=N/Nc2nccnc2Cl)c1 |  | inconclusive: 18.4 µM [activator, partial curve]
29 | CCc1ccc(/C=C/c2c([N+](=O)[O-])c(=O)n(C)c(=O)n2C)cc1 |  | inconclusive: 18.3 µM [inhibitor, single point]
37 | CC1=NN(c2ccc(C)c(C)c2)C(=O)/C1=C\C=C\c1ccc([N+](=O)[O-])o1 |  | inconclusive: 29.1 µM [inhibitor, single point]
50 | CCOC(=O)C(CCCCCOc1ccc([N+](=O)[O-])cc1)C(=O)OCC |  | inconclusive: 1.03 µM [inhibitor, full curve]
59 | O=[N+]([O-])c1ccc(COc2cccc3cccnc23)cc1 |  | inconclusive: 16.4 µM [activator, partial curve]
